Values of other authors as cited in publication PMC6030940 (International Journal of Nanomedicine, 2018).

Tested on: Pgp mRNA in T84 cells
Settings: 10 µM, 72 h; cited from earlier work

CC(C)c1c(C(=O)Nc2ccccc2)c(-c2ccccc2)c(-c2ccc(F)cc2)n1CC[C@@H](O)C[C@@H](O)CC(=O)O [atorvastatin]
increase of mRNA levels of Pgp: 4.1 fold
